Data source: PubChem BioAssay AID743121 (NCATS, 2013)

- Aim: 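Knock-downs that sensitise breast cancer cells to camptothecin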 (primary screen)
- Cells: MDA-MB-231 cells, a human breast cancer line
- Reagent: single siRNA against human genes, 20 nM siRNA (0.8 pmol per well)
- Timing: 120 h (drug added 48 h after transfection, read 72 h later)
- Challenge: camptothecin 20 nM (about EC30) for 72 h; vehicle 0.1% DMSO in parallel plates
- Detection: 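CellTiter-Glo ATP signal, scaled to control siRNA as percent viability; sensitisation given as log2 of untreated divided by camptothecin-treated viability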
- Scale: log2 vehicle/camptothecin viability: higher = stronger sensitisation to camptothecin; viability with camptothecin and viability without drug: higher = more viable cells
- Active means: 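Each gene scored by redundant siRNA activity (RSA) over its individual siRNA ratios; a gene is called active at p < 0.001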
In all, the deposit lists about 26,000 reagents; below is an unselected part. In the full data, 167 (0.63%) got an active call. 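Calls are per gene from RSA p-values that are not deposited; an individual active-marked siRNA can sensitise only weakly.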 Unmarked entries are inactive. Reagents against one gene are numbered here.

| Target gene | reagent no. | log2 vehicle/camptothecin viability | viability with camptothecin (% of control) | viability without drug (% of control) |
| --- | --- | --- | --- | --- |
| SIM1 (SIM bHLH transcription factor 1) | 1 | -0.22 | 118 | 102 |
| SIM1 (SIM bHLH transcription factor 1) | 2 | -0.349 | 94.5 | 74.2 |
| SIM1 (SIM bHLH transcription factor 1) | 3 | -0.166 | 120 | 107 |
| SGPL1 (sphingosine-1-phosphate lyase 1) | 1 | 0.27 | 98.9 | 119 |
| SGPL1 (sphingosine-1-phosphate lyase 1) | 2 | -0.00301 | 84.9 | 84.7 |
| SGPL1 (sphingosine-1-phosphate lyase 1) | 3 | -0.393 | 82.8 | 63.1 |
| PHLDA2 (pleckstrin homology like domain family A member 2) | 1 | -0.361 | 98.4 | 76.6 |
| PHLDA2 (pleckstrin homology like domain family A member 2) | 2 | -0.0186 | 105 | 104 |
| PHLDA2 (pleckstrin homology like domain family A member 2) | 3 | -0.371 | 41.6 | 32.2 |
| PHLDA2 (pleckstrin homology like domain family A member 2) | 4 | -0.331 | 111 | 88.2 |
| FAT1 (FAT atypical cadherin 1) | 1 | -0.0577 | 112 | 107 |
| FAT1 (FAT atypical cadherin 1) | 2 | -0.0849 | 106 | 99.7 |
| FAT1 (FAT atypical cadherin 1) | 3 | -0.495 | 64 | 45.4 |
| FAT1 (FAT atypical cadherin 1) | 4 | -0.0465 | 104 | 101 |
| SMURF2 (SMAD specific E3 ubiquitin protein ligase 2) | 1 | -0.418 | 90.3 | 67.6 |
| SMURF2 (SMAD specific E3 ubiquitin protein ligase 2) | 2 | -0.449 | 82.5 | 60.5 |
| SMURF2 (SMAD specific E3 ubiquitin protein ligase 2) | 3 | 0.0471 | 111 | 114 |
| SMURF2 (SMAD specific E3 ubiquitin protein ligase 2) | 4 | 0.0336 | 92.3 | 94.5 |
| REN (renin) | 1 | -0.16 | 79.8 | 71.4 |
| REN (renin) | 2 | 0.216 | 42.5 | 49.3 |
| REN (renin) | 3 | -0.364 | 77.4 | 60.2 |
| REN (renin) | 4 | 0.0593 | 91.5 | 95.3 |
| ALDH18A1 (aldehyde dehydrogenase 18 family member A1) | 1 | -0.423 | 96.6 | 72.1 |
| ALDH18A1 (aldehyde dehydrogenase 18 family member A1) | 2 | -0.227 | 75.2 | 64.3 |
| ALDH18A1 (aldehyde dehydrogenase 18 family member A1) | 3 | 0.216 | 88.1 | 102 |
| ALDH18A1 (aldehyde dehydrogenase 18 family member A1) | 4 | -0.145 | 114 | 103 |
| AVPR1B (arginine vasopressin receptor 1B) | 1 | -0.0758 | 107 | 102 |
| AVPR1B (arginine vasopressin receptor 1B) | 2 | -0.512 | 66.7 | 46.8 |
| AVPR1B (arginine vasopressin receptor 1B) | 3 | -0.173 | 29.1 | 25.8 |
| AVPR1B (arginine vasopressin receptor 1B) | 4 | -0.255 | 43.7 | 36.6 |

Ordered by “log2 vehicle/camptothecin viability” (ascending): some entries from above.
| Target gene | reagent no. | log2 vehicle/camptothecin viability | viability with camptothecin (% of control) | viability without drug (% of control) |
| --- | --- | --- | --- | --- |
| PHLDA2 (pleckstrin homology like domain family A member 2) | 4 | -0.331 | 111 | 88.2 |
| FAT1 (FAT atypical cadherin 1) | 1 | -0.0577 | 112 | 107 |
